{
  "source": "patent US8362090B2",
  "about": "“Methods and related compositions using specific flavonoids and indanes to reduce weight and inhibit lipase, α-amylase and α-glucosidase activity in mammals” (Gateway Health Alliances, Inc., priority 2007, dated 2013)",
  "system": "α-glucosidase (G5003, from S. cerevisiae)",
  "experiment": "α-Glucosidase assay (p-nitrophenyl-α-D-glucopyranoside)",
  "assay_type": "biochemical",
  "conditions": "tested at 0.28 mg/ml, mean n=3",
  "protocol": "The purified compounds and extracts were made up 2 mg/ml solutions in water using initially a drop of DMSO if required for solubility.",
  "note": "At least one structure is not confirmed: it was looked up by name or label, or the drawing left a doubt.",
  "data": [
    {"smiles": "C[C@@H]1O[C@@H](Oc2c(-c3ccc(O)c(O)c3)oc3cc(O)cc(O)c3c2=O)[C@H](O)[C@H](O)[C@H]1O", "note": "[compound 1, quercitrin]", "values": [
      {"measurement": "α-glucosidase inhibition (in words, FIG. 2)", "value": "promoted the glucosidase activity"}
    ]}
  ]
}
